# No constants are given. Whether binding was seen depends on the method and setting. Binding calls can cover weak binding; strength is not graded here.
# B1: TβRI ectodomain (receptor, UniProt P36897 34-126)
# chain: LQCFCHLCTKDNFTCVTDGLCFVSVTETTDKVIHNSMCIAEIDLIPRDRPFVCAPSSKTGSVTTTYCCNQDHCNKIELPTTVKSSPGLGPVEL
# Biological target: TGM domain 2 (Heligmosomoides polygyrus)
# Experiment: NMR titration
binder,measurement,value
B1,binding,binds

# From doi:10.1101/2020.12.08.416701
